From the supplement of paper PMC7024190
Structures can show the parent of a compound that is named as a salt. Some of the results follow. This data set is noisy: repeats of one test often differ as much as different tests do.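 A first-round screen of about ten thousand compounds sought those raising reporter output, using human embryonic kidney cells briefly transfected with a plasmid carrying a Renilla luciferase gene driven by the HSV-TK promoter.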

system: HEK 293FT; assay: log relative Renilla luciferase luminescence (reporter expression vs reference, reference not stated) (log (base not stated)); higher = higher recombinant reporter expression; conditions: 10 µM; time after transfection 48 h

**Q.** How did the log turn out when CCC(Cc1c(I)cc(I)c(N)c1I)C(=O)O (stereo unspecified) [iopanic acid] was run?
**A.** 0.135

**Q.** For CN1CCc2cccc3c2[C@H]1Cc1ccc(O)c(O)c1-3 [apomorphine hydrochloride], which log is on record?
**A.** -0.146

**Q.** O=C1C=C2CC3(O)COc4c(ccc(O)c4O)C3=C2C=C1O (stereo unspecified) [hematein] was tested. Which log did it give?
**A.** 0.13

**Q.** Which log does the source give for C[C@]12CC[C@@H]3c4ccc(O)cc4CC[C@H]3[C@@H]1CC[C@@H]2OC(=O)CCC1CCCC1 [estradiol cypionate] here?
**A.** -0.16

**Q.** CCCCCCCCCCCCCCCC(=O)NCCO [palmidrol] was tested. Which log did it give?
**A.** -0.0309

**Q.** For CN1CCN(C2=Nc3cc(Cl)ccc3Nc3ccccc32)CC1 [clozapine], which log is on record?
**A.** -0.671

**Q.** Which log does the source give for C=C1C2CC[C@@]3(C)[C@H](c4ccoc4)OC(=O)C[C@]13O[C@H]1CC(O)C(C)(C)C(CC(=O)OC)[C@@]21C (stereo partly drawn) [3alpha-hydroxy-3-deoxyangolensic acid methyl ester] here?
**A.** 0.261

**Q.** How did the log turn out when O=C(O)c1ccccc1Nc1ccccc1 [n-phenylanthranilic acid] was run?
**A.** -0.0578

**Q.** Which log does the source give for Nc1ncnc(Nc2ccc(Cl)cc2)n1 [chlorazanil hydrochloride] here?
**A.** 0.0025

**Q.** How did the log turn out when CC(=O)O[C@H]1CC[C@]2(C)C3=C(CC[C@H]2C1(C)C)[C@]1(C)CC[C@H]([C@H](C)CCC=C(C)C)[C@@]1(C)CC3 [lanosterol acetate] was run?
**A.** 0.047

**Q.** How did the log turn out when CC1CCc2c(N3CCC(O)CC3)c(F)cc3c(=O)c(C(=O)O)cn1c23 (stereo unspecified) [nadifloxacin] was run?
**A.** -1.18

**Q.** How did the log turn out when Clc1ccc(COC(Cn2ccnc2)c2ccc(Cl)cc2Cl)c(Cl)c1 (stereo unspecified) [miconazole nitrate] was run?
**A.** -0.158

**Q.** How did the log turn out when Cc1cc(=O)n(-c2ccccc2)n1C [antipyrine] was run?
**A.** -0.175

**Q.** For NC12CC3CC(CC(C3)C1)C2 [amantadine hydrochloride], which log is on record?
**A.** -0.0794

**Q.** How did the log turn out when CO[C@H]1O[C@@H]2O[C@@]3(C)CC[C@H]4[C@H](C)CC[C@@H]([C@H]1C)[C@@]24OO3 [artemether] was run?
**A.** -0.18

**Q.** For O=c1c2ccccc2oc2ccccc12 [xanthone], which log is on record?
**A.** 0.0557

**Q.** For O=C(O)c1cc(O)c2c(c1)[C@@H]([C@H]1c3cc(C(=O)O)cc(O)c3C(=O)c3c(O[C@@H]4O[C@H](CO)[C@@H](O)[C@H](O)[C@H]4O)cccc31)c1cccc(O[C@@H]3O[C@H](CO)[C@@H](O)[C@H](O)[C@H]3O)c1C2=O [sennoside b], which log is on record?
**A.** -0.0266

**Q.** How did the log turn out when CC(=O)N[C@@H](CCC(N)=O)C(=O)O [aceglutamide] was run?
**A.** -0.00598

**Q.** Which log does the source give for COc1ccc(-c2c(O)c3c(OC)c4c(cc3oc2=O)OC(C)(C)C=C4)cc1 [robustic acid] here?
**A.** -0.0979

**Q.** How did the log turn out when CC(=O)NO [acetohydroxamic acid] was run?
**A.** -0.0905

**Q.** For CN1CCCN=C1COC(=O)C(O)(c1ccccc1)C1CCCCC1 (stereo unspecified) [oxyphencyclimine hydrochloride], which log is on record?
**A.** 0.144

**Q.** For CC(C)(Oc1ccc(Cl)cc1)C(=O)O [clofibric acid], which log is on record?
**A.** -0.0111

**Q.** For CCCCCCCCCCC[C@@H](C[C@@H]1OC(=O)[C@H]1CCCCCC)OC(=O)[C@H](CC(C)C)NC=O [orlistat], which log is on record?
**A.** -0.0451

**Q.** With COc1ccc(-c2oc3ccccc3c(=O)c2OC)cc1 [3,4'-dimethoxyflavone] as the molecule, how does the log read?
**A.** 0.162

**Q.** How did the log turn out when COc1cc(C/C=C/c2ccccc2)c(OC)cc1O [violastyrene] was run?
**A.** 0.0205

**Q.** For O=C1O[C@H](CO)[C@@H](O)[C@H](O)[C@H]1O [gluconolactone], which log is on record?
**A.** -0.0668

**Q.** How did the log turn out when CCC(=O)OCC(=O)[C@@]1(OC(=O)CC)[C@H](C)CC2C3C([C@@H](O)C[C@@]21C)[C@@]1(C)C=CC(=O)C=C1C[C@H]3Cl (stereo partly specified) [alclometazone dipropionate] was run?
**A.** 0.0664

**Q.** How did the log turn out when C=CCCCCCCCCCCCC(O)CC(O)COC(C)=O (stereo unspecified) [avocadene acetate] was run?
**A.** 0.0756

**Q.** How did the log turn out when CC(C)(S)[C@@H](N)C(=O)O [penicillamine] was run?
**A.** 0.0906

**Q.** For O=C(O)C1CSCN1 (stereo unspecified) [timonacic], which log is on record?
**A.** -0.0647

**Q.** For COc1cc(OC)c(C(=O)CCCN2CCCC2)c(OC)c1 [buflomedil hydrochloride], which log is on record?
**A.** 0.0529

**Q.** How did the log turn out when N#CC(c1ccc(Cl)cc1)c1c(Cl)cc(-n2ncc(=O)[nH]c2=O)cc1Cl (stereo unspecified) [diclazuril] was run?
**A.** 0.0933

**Q.** Which log does the source give for O.O.O.O.O=C([O-])CC(O)(CC(=O)[O-])C(=O)[O-].[Li+].[Li+].[Li+] [lithium citrate] here?
**A.** -0.0299

**Q.** For O=C[C@H](O)[C@H](O)CO [erythrose], which log is on record?
**A.** 0.0375

**Q.** For CCN1C(=O)NC(c2ccccc2)C1=O (stereo unspecified) [ethotoin], which log is on record?
**A.** -0.0757

**Q.** COc1ccccc1N1CCN(CC(O)COc2cccc3ccccc23)CC1 (stereo unspecified) [naftopidil] was tested. Which log did it give?
**A.** 0.00605

**Q.** Which log does the source give for CN1CCC(=C2c3ccccc3CC(=O)c3sccc32)CC1 [ketotifen fumarate] here?
**A.** -1.39

**Q.** Which log does the source give for CC[C@H](CC[C@@H](C)[C@H]1CC[C@H]2[C@@H]3CC=C4C[C@@H](O)CC[C@]4(C)[C@H]3CC[C@]12C)C(C)C [beta-sitosterol] here?
**A.** 0.0923

**Q.** How did the log turn out when CCCCC[C@H](CC(=O)O)C(=O)O [nonic acid] was run?
**A.** 0.0824

**Q.** For CCCN(CCC)C(=O)C(CCC(=O)O)NC(=O)c1ccccc1 (stereo unspecified) [proglumide], which log is on record?
**A.** -0.0248

**Q.** How did the log turn out when CC(C)(Sc1cc(C(C)(C)C)c(O)c(C(C)(C)C)c1)Sc1cc(C(C)(C)C)c(O)c(C(C)(C)C)c1 [probucol] was run?
**A.** -0.101

**Q.** With COc1cc(-c2coc3cc(OC)c(OC)c(OC)c3c2=O)cc(OC)c1OC [irigenin trimethyl ether] as the molecule, how does the log read?
**A.** -0.0193

**Q.** For C[C@]12CCC3c4ccc(OC(=O)c5ccccc5)cc4CCC3C1CCC2=O (stereo partly specified) [estrone benzoate], which log is on record?
**A.** 0.0403

**Q.** For Cn1ccnc1S [methimazole], which log is on record?
**A.** -0.106

**Q.** For Nc1c(Br)cc(Br)cc1CN[C@H]1CC[C@H](O)CC1 [ambroxol hydrochloride], which log is on record?
**A.** -0.0464

**Q.** For Oc1ccc(Cl)c2cccnc12 [cloxyquin], which log is on record?
**A.** -0.179

**Q.** How did the log turn out when CCC(=O)c1ccc(O)cc1 [paroxypropione] was run?
**A.** 0.0404

**Q.** With COCC1=C(C(=O)OC(C)OC(=O)OC(C)C)N2C(=O)[C@@H](NC(=O)/C(=N\OC)c3csc(N)n3)[C@H]2SC1 (stereo partly specified) [cefpodoxime proxetil] as the molecule, how does the log read?
**A.** 0.0792

**Q.** With CCN(CC)CCOC(=O)C(c1ccccc1)C1CCCCC1 (stereo unspecified) [drofenine hydrochloride] as the molecule, how does the log read?
**A.** -0.226

**Q.** With COc1cc(Cc2cnc(N)nc2N)cc(OC)c1OC [trimethoprim] as the molecule, how does the log read?
**A.** 0.0278

**Q.** For O=C(CCCN1CCC(O)(c2ccc(Br)cc2)CC1)c1ccc(F)cc1 [bromperidol], which log is on record?
**A.** -0.0569
